Results reported in US20220087983A1, “ACTIVATING PYRUVATE KINASE R” (FORMA Therapeutics, Inc., priority 2020, published 2022).
“Also recorded” adds a separate entry of the source. For at least one compound, name, drawing or mass did not settle the structure.

Chains of the proteins cited; added tags and fusions are not shown.
UniProt P30613, whole entry R510Q: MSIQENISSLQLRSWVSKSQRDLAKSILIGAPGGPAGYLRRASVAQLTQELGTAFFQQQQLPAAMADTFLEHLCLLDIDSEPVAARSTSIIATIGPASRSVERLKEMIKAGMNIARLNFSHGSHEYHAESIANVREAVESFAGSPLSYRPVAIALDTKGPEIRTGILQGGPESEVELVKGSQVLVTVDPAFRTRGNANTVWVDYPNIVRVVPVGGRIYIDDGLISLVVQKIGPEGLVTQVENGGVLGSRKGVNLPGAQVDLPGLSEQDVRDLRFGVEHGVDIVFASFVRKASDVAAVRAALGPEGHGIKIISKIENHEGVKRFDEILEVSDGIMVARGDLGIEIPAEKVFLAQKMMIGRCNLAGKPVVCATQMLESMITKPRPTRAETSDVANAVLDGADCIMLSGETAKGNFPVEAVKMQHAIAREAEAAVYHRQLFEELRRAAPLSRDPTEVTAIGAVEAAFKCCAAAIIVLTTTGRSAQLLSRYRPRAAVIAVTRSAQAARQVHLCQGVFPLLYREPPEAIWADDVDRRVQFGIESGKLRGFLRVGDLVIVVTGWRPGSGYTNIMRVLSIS

Experiments:
[1] = Phase 1: hematologic and hemolytic parameters in SCD patients; format: in vivo, human
From the text: Laboratory changes relative to pretreatment for each pt in the MD cohort as of Jul. In 2 of 3 SCD MD-1 pts treated with Compound 1/placebo (currently blinded), Hb increased by >1 g/dL, % reticulocytes decreased, and markers of hemolysis were improved after 14 days of treatment (compared to pre-treatment levels). Hematologic parameters returned to pre-treatment levels 4 to 7 days post-treatment (data not shown) without clinical AEs. […]

[2] = tested on: HbS RBCs; experiment: In vitro point of sickling and deformability of SCD RBCs (oxygenscan); format: cell-based, human
[3] = Phase 1: reticulocyte counts and hemoglobin in healthy volunteers; format: in vivo, human; details: HS, by Day 4 of dosing
[4] = tested on: HbA RBCs from healthy donors; experiment: In vitro mixing with RBCs, oxygen affinity (p50); format: cell-based, human; details: in vitro incubation; FIG. 16
[5] = tested on: HbS RBCs from SCD donors; experiment: In vitro mixing with RBCs, oxygen affinity (p50); format: cell-based, human; details: in vitro incubation; FIG. 16
[6] = PK/PD modelling and predicted human exposure; details: 1,500 mg
[7] = target: PKR-R510Q (Homo sapiens, UniProt P30613, R510Q); experiment: Enzyme assay of PKR kinetics and activation (Example 3); format: biochemical; details: for Vmax (normalized): normalized to 1.00 within the row
[8] = target: wt-PKR (Homo sapiens, UniProt P30613); experiment: as above; format: biochemical; details: for Vmax (normalized): normalized to 1.00 within the row
Procedure: The ability of Compound 1 to activate PKR in enzyme-based assays was measured.
Tests were conducted in the presence and absence of fructose-1,6-bisphosphate (FBP), a known allosteric activator of PKR.

[9] = SCD, blinded 300 mg Compound 1/placebo QD 14 days, individual patients Pt 1-3
[10] = SCD MAD1, 300 mg once daily, 14 days, 7 patients
[11] = 2 μM Compound 1, presence or absence of FBP

SMILES: O=C([C@H](CO)c1ccccc1)N1CC2=C(C1)CN(S(=O)(=O)c1cnc3c(c1)OCCO3)C2 [Compound 1/Placebo]
- Indirect Bilirubin, change from Screen/Pre-Tx to EOT values (range) [1, 9]: ↓ 1.7- ↑ 0.2; also recorded: ↓ 0-0.2
- Lactate Dehydrogenase, change from Screen/Pre-Tx to EOT values (range) [1, 9]: ↓ 42- ↑ 12; also recorded: ↓ 91-194

SMILES: O=C([C@H](CO)c1ccccc1)N1CC2=C(C1)CN(S(=O)(=O)c1cnc3c(c1)OCCO3)C2 (single isomer, unassigned) [Compound 1]
- P50 versus DMSO ([2]; HbS RBCs in vitro, FIG. 18): lower P50
- elongation index versus DMSO (oxygenscan) ([2]; HbS RBCs, 20 μM, FIG. 19): greater elongation index
- RBC deformability (elongation index) and Point of Sickling ([2]; decreasing oxygen, FIG. 17): improves RBC deformability at a lower oxygen tension
- absolute reticulocyte counts ([3]; all dose cohorts): decrease in absolute reticulocyte counts
- hemoglobin levels ([3]; all dose cohorts (ns)): slight increase in hemoglobin levels
- RBC oxygen affinity (p50) [4]: increases oxygen affinity
- RBC oxygen affinity (p50) [5]: increases oxygen affinity
- predicted maximum exposure, AUC0-inf (free) [6]: 2 nM·h
- predicted maximum exposure, Cmax (free) [6]: 4 nM
- patients with >1 g/dL increase in hemoglobin [1, 10]: 6 of 7
- patients with a decrease in LDH [1, 10]: 6 of 7
- patients with >1 g/dL increase in hemoglobin ([1]; SCD MAD1, 300 mg once daily, 14 days, 7 patients, listed as FT-4202): 6 of 7
- lactate dehydrogenase (LDH) ([1]; SCD, single 700 mg dose, 72 hours after dosing): Decreased lactate dehydrogenase (LDH)
- reduction of PEP Km [7, 11]: ~2 fold
- Vmax (normalized) ([7]; PKR R510Q, 30 μM FBP, 2 μM Compound 1): 1.29
- Vmax (normalized) ([7]; PKR R510Q, No FBP, 2 μM Compound 1): 1.56
- Maximum-fold Activation ([7]; PKR R510Q, PEP at or below Km): <3.0 fold
- reduction of PEP Km [8, 11]: ~2 fold
- Vmax (normalized) ([8]; WT-PKR, 30 μM FBP, 2 μM Compound 1): 1.16
- Vmax (normalized) ([8]; WT-PKR, No FBP, 2 μM Compound 1): 1.14
- Maximum-fold Activation ([8]; WT-PKR, PEP at or below Km): <2.0 fold
